From the supplement of paper PMC10077471
Over roughly 1,900 compounds, “excess over highest single agent (ExcessHSA) synergy score, 6x6 matrix” has its median near -83; the lowest 2% begin near -370. The list shows a part of the results.

Test system: NCI-H446
Assay: excess over highest single agent (ExcessHSA) synergy score, 6x6 matrix; higher = less synergy (more negative = stronger synergy)
Conditions: 72 h; CellTiter-Glo viability

Compound	excess over highest single agent
CCOC(=O)Nc1ccc(NCc2ccc(F)cc2)cc1N + Cc1sc2c(c1C)C(c1ccc(Cl)cc1)=N[C@@H](CC(=O)OC(C)(C)C)c1nnc(C)n1-2 [NCGC00250412-19]	0.0827
Cc1ccc(C(N)=O)cc1Nc1nccc(-c2cn(C(C)C)c3cnccc23)n1 + Cc1sc2c(c1C)C(c1ccc(Cl)cc1)=N[C@@H](CC(=O)OC(C)(C)C)c1nnc(C)n1-2 [NCGC00250412-19]	226
O=C(O)c1ccc(-n2nc(-c3ccccc3O)nc2-c2ccccc2O)cc1 + Cc1sc2c(c1C)C(c1ccc(Cl)cc1)=N[C@@H](CC(=O)OC(C)(C)C)c1nnc(C)n1-2 [NCGC00250412-19]	-85.1
COc1c(C)c2c(c(O)c1C/C=C(\C)CCC(=O)OCCN1CCOCC1)C(=O)OC2 + Cc1sc2c(c1C)C(c1ccc(Cl)cc1)=N[C@@H](CC(=O)OC(C)(C)C)c1nnc(C)n1-2 [NCGC00250412-19]	-105
CN1C(C(=O)Nc2ccccn2)=C(O)c2ccccc2S1(=O)=O + Cc1sc2c(c1C)C(c1ccc(Cl)cc1)=N[C@@H](CC(=O)OC(C)(C)C)c1nnc(C)n1-2 [NCGC00250412-19]	-44.8
CC1(C)[C@@H](O)CC[C@]2(C)[C@H]3C(=O)C=C4[C@@H]5C[C@@](C)(C(=O)O)CC[C@]5(C)CC[C@@]4(C)[C@]3(C)CC[C@@H]12 + Cc1sc2c(c1C)C(c1ccc(Cl)cc1)=N[C@@H](CC(=O)OC(C)(C)C)c1nnc(C)n1-2 [NCGC00250412-19]	-100
CS(=O)(=O)Oc1ccc2c(NC(N)=O)c(C(=O)c3ccc(Cl)cc3Cl)oc2c1 + Cc1sc2c(c1C)C(c1ccc(Cl)cc1)=N[C@@H](CC(=O)OC(C)(C)C)c1nnc(C)n1-2 [NCGC00250412-19]	36.3
CC1(C)CC(=O)c2c(C(F)(F)F)nn(-c3ccc(C(N)=O)c(N[C@H]4CC[C@H](OC(=O)CN)CC4)c3)c2C1 + Cc1sc2c(c1C)C(c1ccc(Cl)cc1)=N[C@@H](CC(=O)OC(C)(C)C)c1nnc(C)n1-2 [NCGC00250412-19]	-482
CCN(CC)CCNC(=O)c1ccc2nc(-c3ccccc3)c(-c3ccc(CN4CCC(n5c(=O)[nH]c6ccccc65)CC4)cc3)nc2c1 + Cc1sc2c(c1C)C(c1ccc(Cl)cc1)=N[C@@H](CC(=O)OC(C)(C)C)c1nnc(C)n1-2 [NCGC00250412-19]	239
Cc1ccc(C)c(OCCCC(C)(C)C(=O)O)c1 + Cc1sc2c(c1C)C(c1ccc(Cl)cc1)=N[C@@H](CC(=O)OC(C)(C)C)c1nnc(C)n1-2 [NCGC00250412-19]	103
O=C(O)C[C@H](O)C[C@H](O)/C=C/c1c(C2CC2)nc2ccccc2c1-c1ccc(F)cc1 + Cc1sc2c(c1C)C(c1ccc(Cl)cc1)=N[C@@H](CC(=O)OC(C)(C)C)c1nnc(C)n1-2 [NCGC00250412-19]	-165
O=C(CCCN1CCC(O)(c2ccc(Cl)cc2)CC1)c1ccc(F)cc1 + Cc1sc2c(c1C)C(c1ccc(Cl)cc1)=N[C@@H](CC(=O)OC(C)(C)C)c1nnc(C)n1-2 [NCGC00250412-19]	-225
CN1CCN(Cc2ccc(NC(=O)Nc3ccc(Oc4cc(NC(=O)C5CC5)ncn4)cc3)cc2C(F)(F)F)CC1 + Cc1sc2c(c1C)C(c1ccc(Cl)cc1)=N[C@@H](CC(=O)OC(C)(C)C)c1nnc(C)n1-2 [NCGC00250412-19]	-34.2
COc1cc2c(cc1OC)[C@@H]1Cc3ccc(OC)c(OC)c3CN1CC2 + Cc1sc2c(c1C)C(c1ccc(Cl)cc1)=N[C@@H](CC(=O)OC(C)(C)C)c1nnc(C)n1-2 [NCGC00250412-19]	-95.9
CN1CCC(CNc2ccc3ncc(-c4cccc(OC(F)(F)F)c4)n3n2)CC1 + Cc1sc2c(c1C)C(c1ccc(Cl)cc1)=N[C@@H](CC(=O)OC(C)(C)C)c1nnc(C)n1-2 [NCGC00250412-19]	-9.83
COc1cc(C=CC(=O)O)ccc1O + Cc1sc2c(c1C)C(c1ccc(Cl)cc1)=N[C@@H](CC(=O)OC(C)(C)C)c1nnc(C)n1-2 [NCGC00250412-19]	22.9
COc1cc2c(cc1OC)[C@@H]1C(=O)c3ccc4c(c3O[C@@H]1CO2)C=CC(C)(C)O4 + Cc1sc2c(c1C)C(c1ccc(Cl)cc1)=N[C@@H](CC(=O)OC(C)(C)C)c1nnc(C)n1-2 [NCGC00250412-19]	-58.6
C=C(C)[C@@H]1CC[C@]2(C)CC[C@]3(C)[C@H](CC[C@@H]4[C@@]5(C)CC[C@H](O)C(C)(C)[C@@H]5CC[C@]43C)[C@@H]12 + Cc1sc2c(c1C)C(c1ccc(Cl)cc1)=N[C@@H](CC(=O)OC(C)(C)C)c1nnc(C)n1-2 [NCGC00250412-19]	-246
CC(C)c1cnn2c(NCc3ccccc3)cc(N[C@@H](CO)[C@H](O)CO)nc12 + Cc1sc2c(c1C)C(c1ccc(Cl)cc1)=N[C@@H](CC(=O)OC(C)(C)C)c1nnc(C)n1-2 [NCGC00250412-19]	-182
O=C(C=CC#Cc1cccc(NS(=O)(=O)c2ccccc2)c1)NO + Cc1sc2c(c1C)C(c1ccc(Cl)cc1)=N[C@@H](CC(=O)OC(C)(C)C)c1nnc(C)n1-2 [NCGC00250412-19]	-234
Cc1cccc(-c2[nH]ncc2-c2ccc3ncccc3n2)n1 + Cc1sc2c(c1C)C(c1ccc(Cl)cc1)=N[C@@H](CC(=O)OC(C)(C)C)c1nnc(C)n1-2 [NCGC00250412-19]	124
O=C(NCCCNc1nc(Nc2cccc(NC(=O)N3CCCC3)c2)ncc1I)c1cccs1 + Cc1sc2c(c1C)C(c1ccc(Cl)cc1)=N[C@@H](CC(=O)OC(C)(C)C)c1nnc(C)n1-2 [NCGC00250412-19]	-137
CN(C)CCOc1cc(-c2cn[nH]c2)ccc1NC(=O)C1COc2ccccc2O1 (centres undefined) + Cc1sc2c(c1C)C(c1ccc(Cl)cc1)=N[C@@H](CC(=O)OC(C)(C)C)c1nnc(C)n1-2 [NCGC00250412-19]	-160
c1cc(CN2CCCNCCNCCCNCC2)ccc1CN1CCCNCCNCCCNCC1 + Cc1sc2c(c1C)C(c1ccc(Cl)cc1)=N[C@@H](CC(=O)OC(C)(C)C)c1nnc(C)n1-2 [NCGC00250412-19]	-64.1

Single values from the entries so far:
Cc1ccc(C(N)=O)cc1Nc1nccc(-c2cn(C(C)C)c3cnccc23)n1 + Cc1sc2c(c1C)C(c1ccc(Cl)cc1)=N[C@@H](CC(=O)OC(C)(C)C)c1nnc(C)n1-2 [NCGC00250412-19] – excess over highest single agent: 226
COc1cc2c(cc1OC)[C@@H]1C(=O)c3ccc4c(c3O[C@@H]1CO2)C=CC(C)(C)O4 + Cc1sc2c(c1C)C(c1ccc(Cl)cc1)=N[C@@H](CC(=O)OC(C)(C)C)c1nnc(C)n1-2 [NCGC00250412-19] – excess over highest single agent: -58.6
